{"source": "PubChem BioAssay AID504808 | Drosophila RNAi Screening Center – 2011", "test": "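Genes whose loss lifts activity of an E2F-responsive reporter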 (primary screen)", "system": "Drosophila S2 cells", "reagents": "long dsRNA against Drosophila genes", "measured": "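Dual luciferase plate measurements; E2F-specific signal taken as firefly over Renilla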", "scale": "E2F firefly: higher = more E2F reporter activity; Renilla normaliser: higher = more normaliser reporter signal", "hit rule": "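a knock-down counted as active when the firefly/Renilla E2F signal rose above 50%, a threshold chosen arbitrarily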", "note": "The deposit covers about 21,000 reagents; shown is a random part of those with a known target gene and a result. Of all reagents, 18 (0.084%) are marked active. 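Raw counts without plate normalisation, one of two replicates; the ratio scores behind the calls were not deposited.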 Reagents against one gene are numbered here. Names joined by + are all predicted targets of the reagent. Not stated in the record: the amount of reagent, the time to read-out."}
{"gene knocked down": "CG18538", "reagent no.": 1, "E2F firefly, rep 1": 1.40e5, "Renilla normaliser, rep 1": 5364, "call": "inactive"}
{"gene knocked down": "CG9837", "reagent no.": 1, "E2F firefly, rep 1": 1.40e5, "Renilla normaliser, rep 1": 7084, "call": "inactive"}
{"gene knocked down": "Spt6", "reagent no.": 1, "E2F firefly, rep 1": 5458, "Renilla normaliser, rep 1": 728, "call": "inactive"}
{"gene knocked down": "PIG-C (Phosphatidylinositol glycan anchor biosynthesis class C)", "reagent no.": 1, "E2F firefly, rep 1": 1.04e5, "Renilla normaliser, rep 1": 4203, "call": "inactive"}
{"gene knocked down": "Pal1 + Pdrg1", "reagent no.": 1, "E2F firefly, rep 1": 1.48e5, "Renilla normaliser, rep 1": 4820, "call": "inactive"}
{"gene knocked down": "RpL37-2 (Ribosomal protein L37-2)", "reagent no.": 1, "E2F firefly, rep 1": 1.01e5, "Renilla normaliser, rep 1": 3763, "call": "inactive"}
{"gene knocked down": "CG12546", "reagent no.": 1, "E2F firefly, rep 1": 92994, "Renilla normaliser, rep 1": 6470, "call": "inactive"}
{"gene knocked down": "dlp (dally-like)", "reagent no.": 1, "E2F firefly, rep 1": 1.00e5, "Renilla normaliser, rep 1": 3278, "call": "inactive"}
{"gene knocked down": "dlp (dally-like)", "reagent no.": 2, "E2F firefly, rep 1": 1.53e5, "Renilla normaliser, rep 1": 7284, "call": "inactive"}
{"gene knocked down": "Gpat4 (Glycerol-3-phosphate acyltransferase 4)", "reagent no.": 1, "E2F firefly, rep 1": 84178, "Renilla normaliser, rep 1": 4700, "call": "inactive"}
{"gene knocked down": "CG15262", "reagent no.": 1, "E2F firefly, rep 1": 99181, "Renilla normaliser, rep 1": 4660, "call": "inactive"}
{"gene knocked down": "Lam (Lamin)", "reagent no.": 1, "E2F firefly, rep 1": 1.42e5, "Renilla normaliser, rep 1": 4765, "call": "inactive"}
{"gene knocked down": "CG6928", "reagent no.": 1, "E2F firefly, rep 1": 69264, "Renilla normaliser, rep 1": 4009, "call": "inactive"}
{"gene knocked down": "Smvt (Sodium-dependent multivitamin transporter)", "reagent no.": 1, "E2F firefly, rep 1": 56355, "Renilla normaliser, rep 1": 3701, "call": "inactive"}
{"gene knocked down": "Arc1 (Activity-regulated cytoskeleton associated protein 1)", "reagent no.": 1, "E2F firefly, rep 1": 78383, "Renilla normaliser, rep 1": 3748, "call": "inactive"}
{"gene knocked down": "ash1 (absent, small, or homeotic discs 1)", "reagent no.": 1, "E2F firefly, rep 1": 66170, "Renilla normaliser, rep 1": 3385, "call": "inactive"}
{"gene knocked down": "sunz (sungrazer)", "reagent no.": 1, "E2F firefly, rep 1": 1.43e5, "Renilla normaliser, rep 1": 6578, "call": "inactive"}
{"gene knocked down": "Uck (Uridine-cytidine kinase)", "reagent no.": 1, "E2F firefly, rep 1": 78970, "Renilla normaliser, rep 1": 2068, "call": "inactive"}
{"gene knocked down": "Uck (Uridine-cytidine kinase)", "reagent no.": 2, "E2F firefly, rep 1": 99010, "Renilla normaliser, rep 1": 6694, "call": "inactive"}
{"gene knocked down": "Mcm3 (Minichromosome maintenance 3)", "reagent no.": 1, "E2F firefly, rep 1": 8650, "Renilla normaliser, rep 1": 652, "call": "inactive"}
{"gene knocked down": "CG42304 + Snup", "reagent no.": 1, "E2F firefly, rep 1": 88944, "Renilla normaliser, rep 1": 3524, "call": "inactive"}
{"gene knocked down": "CG42304 + Snup", "reagent no.": 2, "E2F firefly, rep 1": 97400, "Renilla normaliser, rep 1": 3742, "call": "inactive"}
{"gene knocked down": "Rint1 (RAD50 interactor 1)", "reagent no.": 1, "E2F firefly, rep 1": 68810, "Renilla normaliser, rep 1": 3707, "call": "inactive"}
{"gene knocked down": "Nthl1 (Nth-like DNA glycosylase 1)", "reagent no.": 1, "E2F firefly, rep 1": 97310, "Renilla normaliser, rep 1": 4467, "call": "inactive"}
{"gene knocked down": "Jhbp13 (Juvenile hormone binding protein 13)", "reagent no.": 1, "E2F firefly, rep 1": 1.14e5, "Renilla normaliser, rep 1": 4829, "call": "inactive"}
{"gene knocked down": "grsm (granny smith)", "reagent no.": 1, "E2F firefly, rep 1": 96543, "Renilla normaliser, rep 1": 5854, "call": "inactive"}
{"gene knocked down": "grsm (granny smith)", "reagent no.": 2, "E2F firefly, rep 1": 95835, "Renilla normaliser, rep 1": 6003, "call": "inactive"}
{"gene knocked down": "blow (blown fuse)", "reagent no.": 1, "E2F firefly, rep 1": 3145, "Renilla normaliser, rep 1": 185, "call": "inactive"}
{"gene knocked down": "sl (small wing)", "reagent no.": 1, "E2F firefly, rep 1": 7940, "Renilla normaliser, rep 1": 744, "call": "inactive"}
{"gene knocked down": "CG9757", "reagent no.": 1, "E2F firefly, rep 1": 1.19e5, "Renilla normaliser, rep 1": 6225, "call": "inactive"}
{"gene knocked down": "KrT95D (Krueppel target at 95D)", "reagent no.": 1, "E2F firefly, rep 1": 74998, "Renilla normaliser, rep 1": 3825, "call": "inactive"}
{"gene knocked down": "mus201 + Chrac-14", "reagent no.": 1, "E2F firefly, rep 1": 1.40e5, "Renilla normaliser, rep 1": 4773, "call": "inactive"}
{"gene knocked down": "mus201 + Chrac-14", "reagent no.": 2, "E2F firefly, rep 1": 1.58e5, "Renilla normaliser, rep 1": 5300, "call": "inactive"}
{"gene knocked down": "CG44001 + CG33995", "reagent no.": 1, "E2F firefly, rep 1": 1.26e5, "Renilla normaliser, rep 1": 5186, "call": "inactive"}
{"gene knocked down": "CG44001 + CG33995", "reagent no.": 2, "E2F firefly, rep 1": 1.05e5, "Renilla normaliser, rep 1": 4181, "call": "inactive"}
{"gene knocked down": "CG12206", "reagent no.": 1, "E2F firefly, rep 1": 1.06e5, "Renilla normaliser, rep 1": 4879, "call": "inactive"}

Taken from above:
CG44001 + CG33995 #1, Renilla normaliser, rep 1: 5186
CG42304 + Snup #2, Renilla normaliser, rep 1 → 3742
For “call”, sunz (sungrazer) reads inactive
Entry for CG44001 + CG33995 #2 under “E2F firefly, rep 1”: 1.05e5
Jhbp13 (Juvenile hormone binding protein 13), E2F firefly, rep 1 = 1.14e5
For “E2F firefly, rep 1”, KrT95D (Krueppel target at 95D) has 74998
